These are yes or no findings as the source states them, for the method shown.
Molecular target: E. coli ISC-type ferredoxin, cluster-loaded (holo-Fdx) (E. coli) (UniProt P0A9R4)
Test: NMR relaxation (15N T1, T2; correlation time from R2/R1); holo-Fdx alone; 298 K, 600 MHz, 20 mM Tris-HCl, 500 mM NaCl, 20 mM TCEP, pH 8; both purified

binding: no binding
B1: E. coli ISC-type ferredoxin, cluster-loaded (holo-Fdx) (protein, UniProt P0A9R4 1-111)
chain: MPKIVILPHQDLCPDGAVLEANSGETILDAALRNGIEIEHACEKSCACTTCHCIVREGFDSLPESSEQEDDMLDKAWGLEPESRLSCQARVTDEDLVVEIPRYTINHAREH
